Publication PMC4489720
No constants are given. Whether binding was seen depends on the method and setting.

What was measured:
[1] = target: PfEMP1 protein IT4VAR09 on infected erythrocytes (P. falciparum IT4); test: flow cytometry on cells; late-stage infected erythrocytes (1x10^5) incubated 30 min at room temperature with α2M or α2M-MA (10 nM; titrated in Fig 2B) or IgM; detected with anti-α2M or anti-human IgM antibodies; in competition assays α2M and IgM added in separate steps; only the binder purified
[2] = target: PfEMP1 protein HB3VAR03 on infected erythrocytes (P. falciparum HB3); test: as above
[3] = target: recombinant full-length VAR2CSA-type PfEMP1 IT4VAR04 (FV2) (P. falciparum IT4); test: ELISA; MaxiSorp plates coated with recombinant PfEMP1 constructs (18 nM, overnight, 4°C); blocked in TSM buffer with 1% Ig-free BSA; α2M or α2M-MA (10 nM; titrated in Fig 2A); detected with anti-α2M antibodies; both purified

Measured: binding

B1: α2-macroglobulin (α2M), native (protein, UniProt P01023 24-1474)
chain: SVSGKPQYMVLVPSLLHTETTEKGCVLLSYLNETVTVSASLESVRGNRSLFTDLEAENDVLHCVAFAVPKSSSNEEVMFLTVQVKGPTQEFKKRTTVMVKNEDSLVFVQTDKSIYKPGQTVKFRVVSMDENFHPLNELIPLVYIQDPKGNRIAQWQSFQLEGGLKQFSFPLSSEPFQGSYKVVVQKKSGGRTEHPFTVEEFVLPKFEVQVTVPKIITILEEEMNVSVCGLYTYGKPVPGHVTVSICRKYSDASDCHGEDSQAFCEKFSGQLNSHGCFYQQVKTKVFQLKRKEYEMKLHTEAQIQEEGTVVELTGRQSSEITRTITKLSFVKVDSHFRQGIPFFGQVRLVDGKGVPIPNKVIFIRGNEANYYSNATTDEHGLVQFSINTTNVMGTSLTVRVNYKDRSPCYGYQWVSEEHEEAHHTAYLVFSPSKSFVHLEPMSHELPCGHTQTVQAHYILNGGTLLGLKKLSFYYLIMAKGGIVRTGTHGLLVKQEDMKGHFSISIPVKSDIAPVARLLIYAVLPTGDVIGDSAKYDVENCLANKVDLSFSPSQSLPASHAHLRVTAAPQSVCALRAVDQSVLLMKPDAELSASSVYNLLPEKDLTGFPGPLNDQDNEDCINRHNVYINGITYTPVSSTNEKDMYSFLEDMGLKAFTNSKIRKPKMCPQLQQYEMHGPEGLRVGFYESDVMGRGHARLVHVEEPHTETVRKYFPETWIWDLVVVNSAGVAEVGVTVPDTITEWKAGAFCLSEDAGLGISSTASLRAFQPFFVELTMPYSVIRGEAFTLKATVLNYLPKCIRVSVQLEASPAFLAVPVEKEQAPHCICANGRQTVSWAVTPKSLGNVNFTVSAEALESQELCGTEVPSVPEHGRKDTVIKPLLVEPEGLEKETTFNSLLCPSGGEVSEELSLKLPPNVVEESARASVSVLGDILGSAMQNTQNLLQMPYGCGEQNMVLFAPNIYVLDYLNETQQLTPEIKSKAIGYLNTGYQRQLNYKHYDGSYSTFGERYGRNQGNTWLTAFVLKTFAQARAYIFIDEAHITQALIWLSQRQKDNGCFRSSGSLLNNAIKGGVEDEVTLSAYITIALLEIPLTVTHPVVRNALFCLESAWKTAQEGDHGSHVYTKALLAYAFALAGNQDKRKEVLKSLNEEAVKKDNSVHWERPQKPKAPVGHFYEPQAPSAEVEMTSYVLLAYLTAQPAPTSEDLTSATNIVKWITKQQNAQGGFSSTQDTVVALHALSKYGAATFTRTGKAAQVTIQSSGTFSSKFQVDNNNRLLLQQVSLPELPGEYSMKVTGEGCVYLQTSLKYNILPEKEEFPFALGVQTLPQTCDEPKAHTSFQISLSVSYTGSRSASNMAIVDVKMVSGFIPLKPTVKMLERSNHVSRTEVSSNHVLIYLDKVSNQTLSLFFTVLQDVPVRDLKPAIVKVYDYYETDEFAIAEYNAPCSKDLGNA
no binding (tested: 10 nM): all assays above
